Reference: PubChem BioAssay AID248 (DTP/NCI, 2004)
The list shows only some results of the screen, not a fair sample: it is rich in T/C values a quarter to a half above the control, in often repeated tests (any T/C) and in doses without a T/C. Other doses and runs of a compound stand elsewhere. T/C: endpoint of the treated group in % of that of the vehicle group. Some entries give survivors of the animals treated and no T/C: the source holds a T/C of zero for them, seemingly a mark for toxic or unscored doses. Some doses without a T/C left all or most animals alive at the check, yet need not have been tolerated: the source hardly ever lists a survival T/C far under the control, and the zero likely stands for such cases as well. Survivors were counted at the toxicity check, usually on the fifth day, unless a day is given; later deaths do not show. Schedules are NCI's codes, taken here to give the interval after Q, in days (D) or hours (H), and the number of doses after X. Some molecules as drawn cover several salts, stereoisomers or complexes of the source; a dose is that of the sample tested. Some schedules carry Z or #; the key to these is not given. Some doses were run more than once; their values stand side by side, smallest first. For survival time, this PubChem deposit counts one and a half times the control or more as active, and values a quarter to a half above the control carry no call in these data; other NCI protocols may use other cut-offs. Some T/C values carry the count of animals alive at the toxicity check (mostly the fifth day); without a count, all were alive then.

System: L1210 leukemia ip in BDF1 mice, survival T/C
Experiment: NCI In Vivo Anticancer Drug Screen. Data for tumor model L1210 Leukemia (intraperitoneal) in B6D2F1 (BDF1) mice
Conditions: T/C endpoint: mean survival time, higher T/C = longer survival
[1] = dose: 200.0 mg/kg/injection, schedule: Q01DX001 (ip), vehicle: saline
[2] = dose: 400.0 mg/kg/injection, schedule: Q01DX001 (ip), vehicle: saline
[3] = dose: 400.0 mg/kg/injection, schedule: Q04DX003 (ip), vehicle: Klucel (hydroxypropylcellulose) (HPC)
[4] = dose: 200.0 mg/kg/injection, schedule: Q04DX002 (ip), vehicle: Klucel (hydroxypropylcellulose) (HPC)
[5] = dose: 400.0 mg/kg/injection, schedule: Q04DX002 (ip), vehicle: Klucel (hydroxypropylcellulose) (HPC)
[6] = dose: 400.0 mg/kg/injection, schedule: Q04DX002 (ip), vehicle: saline
[7] = dose: 400.0 mg/kg/injection, schedule: Q01DX009 (ip), vehicle: saline
[8] = dose: 400.0 mg/kg/injection, schedule: Q04DX003 (ip), vehicle: saline
[9] = dose: 200.0 mg/kg/injection, schedule: Q04DX003 (ip), vehicle: Klucel (hydroxypropylcellulose) (HPC)
[10] = dose: 100.0 mg/kg/injection, schedule: Q04DX002 (ip), vehicle: saline with Tween-80
[11] = dose: 200.0 mg/kg/injection, schedule: Q04DX002 (ip), vehicle: saline with Tween-80
[12] = dose: 400.0 mg/kg/injection, schedule: Q04DX002 (ip), vehicle: saline with Tween-80
[13] = dose: 100.0 mg/kg/injection, schedule: Q04DX003 (ip), vehicle: Klucel (hydroxypropylcellulose) (HPC)
[14] = dose: 400.0 mg/kg/injection, schedule: Q01DX009 (ip), vehicle: saline with Tween-80
[15] = dose: 100.0 mg/kg/injection, schedule: Q01DX001 (ip), vehicle: saline
[16] = dose: 400.0 mg/kg/injection, schedule: Q04DX003 (ip), vehicle: saline with Tween-80
[17] = dose: 200.0 mg/kg/injection, schedule: Q04DX003 (ip), vehicle: saline
[18] = dose: 400.0 mg/kg/injection, schedule: Q01DX001 (ip), vehicle: other
[19] = dose: 50.0 mg/kg/injection, schedule: Q04DX002 (ip), vehicle: Klucel (hydroxypropylcellulose) (HPC)

## CC(Cl)C(=O)OC(C)(C)Cl (stereo unspecified)
dose: 300.0 mg/kg/injection, schedule: Q01DX001 (ip), vehicle: carboxymethylcellulose (CMC)
  survivor count: 1 of 6

## CC(Br)CN1CCOCC1 (stereo unspecified)
[1]
  survivor count: 0 of 6
[2]
  survivor count: 0 of 6

## COc1c(Cl)c(C)c(Cl)c(C)c1C#CC(=O)O
[3]
  survivor count: 1 of 6

## Cc1cnc(NN)nc1-c1ccccc1O
[4]
  survivor count: 1 of 3
[5]
  survivor count: 0 of 3

## C[N+]1(CCCl)CC[N+](C)(CCCl)CC1 (stereo unspecified)
[6]
  T/C: 129 % of control

## Cc1ccc(S(=O)(=O)NCCC(=N)N)cc1
[2]
  survivor count: 1 of 6

## CCCCCCCCCCCCO[P+](=O)OCCCCCCCCCCCC
dose: 400.0 mg/kg/injection, schedule: Q01DX009 (ip), vehicle: saline sonified
  survivor count: 6 of 6
dose: 500.0 mg/kg/injection, schedule: Q01DX Z (ip), vehicle: methylcellulose (MC)
  survivor count: 3 of 6

## NCCc1ccc2c(c1)OCO2
dose: 200.0 mg/kg/injection, schedule: Q01DX009 (ip), vehicle: saline
  survivor count: 2 of 6
[7]
  survivor count: 0 of 6
[8]
  survivor count: 1 of 6

## Cc1cccc(C)c1N(N=O)C(=O)c1ccccc1
dose: 300.0 mg/kg/injection, schedule: Q01DX001 (ip), vehicle: saline
  survivor count: 2 of 6

## COc1cc(N)c2ncsc2c1
[7]
  survivor count: 3 of 3

## CCOC1OCN(C(C)C)CC1(C)C (stereo unspecified)
dose: 300.0 mg/kg/injection, schedule: Q01DX009 (ip), vehicle: saline
  survivor count: 0 of 6

## CC(=O)N(C)N=Nc1ccc(C)cc1
dose: 200.0 mg/kg/injection, schedule: Q01DX009 (ip), vehicle: Klucel (hydroxypropylcellulose) (HPC)
  T/C: 128 [5 of 6 alive] and 133 % of control
dose: 400.0 mg/kg/injection, schedule: Q04DX003 (ip), vehicle: other
  survivor count: 3 of 6

## COc1ccc(-c2cccc(-c3ccccc3)n2)cc1
[9]
  survivor count: 2 of 6
[3]
  survivor count: 0 of 6

## O=[N+]([O-])c1ccc(Sc2ccsc2)c([N+](=O)[O-])c1
[2]
  survivor count: 1 of 4

## OC[CH2][Sb]([Cl])([Cl])([c]1ccccc1)[c]1ccccc1
[10]
  survivor count: 0 of 3
[11]
  survivor count: 0 of 3
[12]
  survivor count: 0 of 3

## CC[N+](C)(CC)CCSC(=O)Nc1ccc(Cc2ccc(NC(=O)SCC[N+](C)(CC)CC)cc2)cc1
dose: 25.0 mg/kg/injection, schedule: Q01DX009 (ip), vehicle: Klucel (hydroxypropylcellulose) (HPC)
  survivor count: 0 of 6
dose: 40.0 mg/kg/injection, schedule: Q04DX003 (ip), vehicle: Klucel (hydroxypropylcellulose) (HPC)
  survivor count: 0 of 6
dose: 50.0 mg/kg/injection, schedule: Q01DX009 (ip), vehicle: Klucel (hydroxypropylcellulose) (HPC)
  survivor count: 0 of 6
dose: 50.0 mg/kg/injection, schedule: Q04DX003 (ip), vehicle: Klucel (hydroxypropylcellulose) (HPC)
  survivor count: 1 of 6
[13]
  survivor count: 0 of 6
[9]
  survivor count: 0 of 6
[3]
  survivor count: 0 of 6

## Cc1nc(N)c(Cl)nc1C
[14]
  survivor count: 6 of 6

## CCOC(CCl)(OCC)OCC
[12]
  survivor count: 0 of 3

## N#Cc1ccccc1C(N)=O
dose: 200.0 mg/kg/injection, schedule: Q04DX002 (ip), vehicle: saline
  survivor count: 1 of 3
[6]
  survivor count: 0 of 3

## CC(C)(C)c1cc([N+](C)(C)C)cc(C(C)(C)C)n1
[15]
  survivor count: 1 of 3
[10]
  survivor count: 0 of 3
[1]
  survivor count: 0 of 3
[11]
  survivor count: 0 of 3
[12]
  survivor count: 0 of 3

## CC(=O)OCC(OC(C)=O)C(OC(C)=O)C(C#N)OC(C)=O (stereo unspecified)
[13]
  survivor count: 1 of 6
[9]
  survivor count: 0 of 6
[3]
  survivor count: 0 of 6
[16]
  survivor count: 1 of 6

## CC/C(C[n+]1ccccc1)=N\Nc1ccc([N+](=O)[O-])cc1[N+](=O)[O-]
dose: 80.0 mg/kg/injection, schedule: Q04DX003 (ip), vehicle: saline
  survivor count: 5 of 6
[15]
  survivor count: 0 of 4
[1]
  survivor count: 0 of 4
[2]
  survivor count: 0 of 4

## Nc1ccc(O)cc1
dose: 50.0 mg/kg/injection, schedule: Q04DX003 (ip), vehicle: saline
  survivor count: 1 of 3
dose: 80.0 mg/kg/injection, schedule: Q01DX Z (ip), vehicle: methylcellulose (MC)
  T/C: 137 % of control
dose: 100.0 mg/kg/injection, schedule: Q04DX003 (ip), vehicle: saline
  survivor count: 0 of 3
dose: 160.0 mg/kg/injection, schedule: Q01DX Z (ip), vehicle: methylcellulose (MC)
  T/C: 130 % of control
[17]
  survivor count: 0 of 3
[8]
  survivor count: 0 of 3
dose: 405.0 mg/kg/injection, schedule: Q01DX Z (ip), vehicle: saline
  survivor count: 3 of 6
dose: 480.0 mg/kg/injection, schedule: Q01DX013 (oral), vehicle: saline
  T/C: 136 % of control
dose: 610.0 mg/kg/injection, schedule: Q01DX Z (ip), vehicle: saline
  survivor count: 0 of 6
dose: 640.0 mg/kg/injection, schedule: Q01DX Z (oral), vehicle: methylcellulose (MC)
  survivor count: 1 of 6
dose: 720.0 mg/kg/injection, schedule: Q01DX016 (oral), vehicle: saline
  T/C: 132 % of control [5 of 6 alive]
dose: 1080.0 mg/kg/injection, schedule: Q01DX016 (oral), vehicle: saline
  T/C: 139 % of control [4 of 6 alive]
dose: 1280.0 mg/kg/injection, schedule: Q01DX Z (oral), vehicle: methylcellulose (MC)
  survivor count: 0 of 6

## CN(C)CC/C=C1/c2ccccc2COc2ccccc21
dose: 100.0 mg/kg/injection, schedule: Q01DX009 (ip), vehicle: saline
  survivor count: 0 of 6
[17]
  survivor count: 0 of 4
[8]
  survivor count: 0 of 4

## O=C(OCCCCCOC(=O)c1ccccc1O)c1ccccc1O
[18]
  survivor count: 6 of 6

## CC(/C=C/c1ccc(O)cc1)=N\O
[14]
  survivor count: 0 of 6

## Cc1ccc2[nH]c(=S)[nH]c2c1
dose: 400.0 mg/kg/injection, schedule: Q01DX001 (ip), vehicle: saline with Tween-80
  survivor count: 0 of 3

## NC(N)=NCCc1ccc(Cl)cc1
dose: 100.0 mg/kg/injection, schedule: Q01DX001 (ip), vehicle: Klucel (hydroxypropylcellulose) (HPC)
  survivor count: 1 of 6
dose: 200.0 mg/kg/injection, schedule: Q01DX001 (ip), vehicle: Klucel (hydroxypropylcellulose) (HPC)
  survivor count: 0 of 6

## N=C(N)c1cccc(NC(=O)Nc2cccc(C(=N)N)c2)c1
dose: 60.0 mg/kg/injection, schedule: Q01DX Z (ip), vehicle: saline
  survivor count: 0 of 6
dose: 120.0 mg/kg/injection, schedule: Q01DX Z (ip), vehicle: saline
  survivor count: 0 of 6

## CN(C)c1nc(=[N+](C)C)ss1
[16]
  survivor count: 6 of 6

## O=C(O)c1cc(N=Nc2ccccc2)ccc1O
dose: 200.0 mg/kg/injection, schedule: Q01DX009 (ip), vehicle: saline with Tween-80
  survivor count: 3 of 6
[18]
  survivor count: 1 of 6
[8]
  survivor count: 6 of 6

## C[As](C)(=S)[As](C)(C)=S
[19]
  T/C: 129 % of control
  survivor count: 3 of 3
dose: 100.0 mg/kg/injection, schedule: Q04DX002 (ip), vehicle: Klucel (hydroxypropylcellulose) (HPC)
  survivor count: 1 of 3 and 3 of 3
[4]
  survivor count: 0 of 3
[5]
  survivor count: 0 of 3

## O=C1C=CC2C3C=CC(CC3)C12 (stereo unspecified)
[4]
  survivor count: 1 of 3
